Experimental data from patent publication US20170189504A1, “NOVEL PEPTIDES AND COMBINATION OF PEPTIDES FOR USE IN IMMUNOTHERAPY AGAINST VARIOUS CANCERS” (immatics biotechnologies GmbH, priority 2015, published 2017).
For some assays here: Expression values are those of the mRNA of the gene that encodes the peptide; a gene is named only where it was looked up.

What was measured:
source genes (mRNA) [1] = experiment: Expression profiling of source genes by in-house RNASeq of tumor and normal tissues (Table 18, FIG. 2); design: species or system human; key: very highly over-expressed in tumors compared to a panel of normal tissues (+++); highly over-expressed in tumors compared to a panel of normal tissues (++); over-expressed in tumors compared to a panel of normal tissues (+); conditions: source gene of peptide; for Expression score SCLC: small cell lung cancer (N = 10) vs panel of normal tissues; for Expression score GB: glioblastoma (N = 24) vs panel of normal tissues
source genes (mRNA) [2] = experiment: Gene and exon expression of source genes, TCGA tumor samples compared with normal tissue samples (Lonsdale, 2013) (Table 17); design: species or system human; conditions: for Over-expression category of source gene (target coverage), CHOL: CHOL = Cholangiocarcinoma (N = 36); for Over-expression category of source gene (target coverage), GBM: GBM = Glioblastoma multiforme (N = 169); for Over-expression category of source gene (target coverage), LIHC: LIHC = Liver hepatocellular carcinoma (N = 374); for Over-expression category of source gene (target coverage), LUAD: LUAD = Lung adenocarcinoma (N = 517); for Over-expression category of source gene (target coverage), SKCM: SKCM = Skin cutaneous melanoma (N = 473)
HLA-A*24 = experiment: Identification and relative LC-MS quantitation of HLA-A*24-presented tumor-associated peptides on tissue samples (presentation profiles, Tables 14A, 14B, 16, FIG. 1); design: species or system human; key to Presentation score GC / Presentation score NSCLC / Presentation score PCA / Presentation score GB / Presentation score HCC / Presentation score RCC: specifically presented on tumors (++++); very highly over-presented on tumors compared to a panel of normal tissues (+++); highly over-presented on tumors compared to a panel of normal tissues (++); over-presented on tumors compared to a panel of normal tissues (+); conditions: for Presentation score NSCLC: non-small cell lung cancer (N = 91) vs panel of normal tissues (N = 70); for Peptide Presentation on cancer entities: Table 14A, HLA-A*24-binding tumor-associated peptides, cancer entities on which the peptide was found presented

## 187: peptide found in CCNE1 (gene looked up) (TYLRDQHFL; listed as Homo sapiens) [compound 187]
Source genes (mRNA) [1]; esophageal cancer incl. gastric-esophageal junction (N = 11) vs panel of normal tissues
  Expression score OSCAR: +
Source genes (mRNA) [1]; non-Hodgkin lymphoma (N = 10) vs panel of normal tissues
  Expression score NHL: +
Source genes (mRNA) [1]; non-small cell lung cancer (N = 11) vs panel of normal tissues
  Expression score NSCLC: +
Source genes (mRNA) [1]; ovarian cancer (N = 12) vs panel of normal tissues
  Expression score OC: +++
Source genes (mRNA) [1]
  Expression score SCLC: ++
Source genes (mRNA) [1]; urinary bladder cancer (N = 10) vs panel of normal tissues
  Expression score UBC: +
Source genes (mRNA) [1]; uterine cancer (N = 10) vs panel of normal tissues
  Expression score UEC: +
Source genes (mRNA) [2]; BLCA = Bladder urothelial carcinoma (N = 408), same cutoff
  Over-expression category of source gene (target coverage), BLCA: A (>=50% of tumors above the cutoff)
Source genes (mRNA) [2]; BRCA = Breast cancer (N = 1104), tumors more than 2-fold above highest 75% percentile of normal tissues
  Over-expression category of source gene (target coverage), BRCA: C (>=5% of tumors above the cutoff, but <20%)
Source genes (mRNA) [2]; same cutoff
  Over-expression category of source gene (target coverage), CHOL: C (>=5% of tumors above the cutoff, but <20%)
  Over-expression category of source gene (target coverage), GBM: C (>=5% of tumors above the cutoff, but <20%)
  Over-expression category of source gene (target coverage), LIHC: C (>=5% of tumors above the cutoff, but <20%)
  Over-expression category of source gene (target coverage), LUAD: C (>=5% of tumors above the cutoff, but <20%)
  Over-expression category of source gene (target coverage), SKCM: C (>=5% of tumors above the cutoff, but <20%)
Source genes (mRNA) [2]; COAD = Colon and rectal adenocarcinoma (N = 462), same cutoff
  Over-expression category of source gene (target coverage), COAD: B (>= 20% of tumors above the cutoff, but <50%)
Source genes (mRNA) [2]; DLBC = Lymphoid neoplasm diffuse large B-cell lymphoma (N = 48), same cutoff
  Over-expression category of source gene (target coverage), DLBC: A (>=50% of tumors above the cutoff)
Source genes (mRNA) [2]; ESCA = Esophageal cancer (N = 185), same cutoff
  Over-expression category of source gene (target coverage), ESCA: B (>= 20% of tumors above the cutoff, but <50%)
Source genes (mRNA) [2]; LAML = Acute Myeloid Leukemia (N = 173), same cutoff
  Over-expression category of source gene (target coverage), LAML: B (>= 20% of tumors above the cutoff, but <50%)
Source genes (mRNA) [2]; LUSC = Lung squamous cell carcinoma (N = 503), same cutoff
  Over-expression category of source gene (target coverage), LUSC: B (>= 20% of tumors above the cutoff, but <50%)
Source genes (mRNA) [2]; OV = Ovarian serous cystadenocarcinoma (N = 309), same cutoff
  Over-expression category of source gene (target coverage), OV: A (>=50% of tumors above the cutoff)
Source genes (mRNA) [2]; READ = Colon and rectal adenocarcinoma (N = 167), same cutoff
  Over-expression category of source gene (target coverage), READ: B (>= 20% of tumors above the cutoff, but <50%)
Source genes (mRNA) [2]; STAD = Stomach adenocarcinoma (N = 415), same cutoff
  Over-expression category of source gene (target coverage), STAD: B (>= 20% of tumors above the cutoff, but <50%)
Source genes (mRNA) [2]; UCEC = Uterine corpus endometrial carcinoma (N = 546), same cutoff
  Over-expression category of source gene (target coverage), UCEC: A (>=50% of tumors above the cutoff)
HLA-A*24; HLA-A*24 peptides, gastric cancer (N = 44) vs panel of normal tissues (N = 70)
  Presentation score GC: ++++
HLA-A*24; HLA-A*24 peptides, hepatocellular carcinoma (N = 15) vs panel of normal tissues (N = 70)
  Presentation score HCC: ++++
HLA-A*24; HLA-A*24 peptides
  Presentation score NSCLC: ++++
HLA-A*24
  Peptide Presentation on cancer entities: GC, NSCLC, HCC

## 188: peptide found in DCLK2 (gene looked up) (RYFKGLVF; listed as Homo sapiens) [compound 188]
Source genes (mRNA) [1]
  Expression score GB: +++
Source genes (mRNA) [2]; same cutoff
  Over-expression category of source gene (target coverage), GBM: A (>=50% of tumors above the cutoff)
Source genes (mRNA) [2]; LGG = Lower grade glioma (N = 534), same cutoff
  Over-expression category of source gene (target coverage), LGG: A (>=50% of tumors above the cutoff)
HLA-A*24; HLA-A*24 peptides, glioblastoma (N = 18) vs panel of normal tissues (N = 70)
  Presentation score GB: ++++

## 189: peptide found in TRPM8 (gene looked up) (WYVNGVNYF; listed as Homo sapiens) [compound 189]
Source genes (mRNA) [1]
  Expression score GB: +
  Expression score SCLC: +++
Source genes (mRNA) [1]; hepatocellular carcinoma (N = 15) vs panel of normal tissues
  Expression score HCC: ++
Source genes (mRNA) [1]; prostate cancer and benign prostate hyperplasia (N = 5) vs panel of normal tissues
  Expression score PCA: +++
Source genes (mRNA) [2]; same cutoff
  Over-expression category of source gene (target coverage), CHOL: C (>=5% of tumors above the cutoff, but <20%)
  Over-expression category of source gene (target coverage), LIHC: C (>=5% of tumors above the cutoff, but <20%)
  Over-expression category of source gene (target coverage), LUAD: C (>=5% of tumors above the cutoff, but <20%)
  Over-expression category of source gene (target coverage), SKCM: C (>=5% of tumors above the cutoff, but <20%)
Source genes (mRNA) [2]; KIRP = Papillary kidney carcinoma (N = 291), same cutoff
  Over-expression category of source gene (target coverage), KIRP: C (>=5% of tumors above the cutoff, but <20%)
Source genes (mRNA) [2]; PRAD = Prostate adenocarcinoma (N = 498), same cutoff
  Over-expression category of source gene (target coverage), PRAD: A (>=50% of tumors above the cutoff)
HLA-A*24; HLA-A*24 peptides
  Presentation score NSCLC: ++++
HLA-A*24; HLA-A*24 peptides, prostate cancer (N = 40) vs panel of normal tissues (N = 70)
  Presentation score PCA: ++++
HLA-A*24
  Peptide Presentation on cancer entities: NSCLC, PCA
